The values that follow come from the supplement of paper PMC10338343.

± gives the standard deviation. This is a selection; strong and weak results do not stand in their true shares. The uncertainty is large for many entries. The list shows a part of the results. Where only a bound is given, the exact number is not on record here.

In the first assay the test system is MIWI (PIWIL1) piRISC loaded with L1MC piRNA (30 nt). Put plainly: pre-steady-state target cleavage rate (min^-1); higher = faster piRNA-guided slicing of the target. The following applies: guide: L1MC piRNA 5'p-UAACUAAAUACUAUGCAAGCUGUAGGUCCU; auxiliary factor: 500 nM mouse GTSF1. An outline of the steps:
(§1)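 At 33 °C in HEPES–potassium acetate buffer, a transcribed, DNA-blocked target RNA library […] was exposed for 0–8 or 0–960 min to 1 nM active affinity-purified piRISC carrying a single synthetic guide, with or without 500 nM GTSF1 partner protein. Uncleaved targets were sequenced and normalised to depth and to weakly complementary targets. With three trials pooled and k3 capped at 0.0001 min^-1, a burst-and-steady-state fit produced the pre-steady-state cleavage rate.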
In the case of UCCUGGAUGUCGAACCAUACUAUUUACUUA, the “pre-steady-state target cleavage rate” value worked out at 0.000118 ± 0.035.
Same read-out and setting: the value for UCCUGGAUGUCGAACGUAUCUAUUUACAUA was 0.000138 ± 0.024; that for UCCUGGAUGUCGAACCUAUAGUAUUUAGUUA was 0.000152 ± 0.018.

The assay is the same for the next values; noted with them: guide: L1MC piRNA 5'p-UAACUAAAUACUAUGCAAGCUGUAGGUCCU; auxiliary factor: none (no GTSF1).
In the case of UCCUGGAUGUCCUUGCAUACUAAUUAGUUA, the “pre-steady-state target cleavage rate” value is 0.00145 ± 0.005.
Still for that read-out and setting: the value for UCCUGGUACUCGUUGCAUAGUAUUUAGUUA was 0.00152 ± 0.0048; that for “UCCUGGAUGUCCUUGCAUAGUUAAAUCAAA [g10:g19:cont:t1A]” was 0.000635 ± 0.011.
Same read-out and setting: as for UCCUGGAUGUCCUUGACAUAGUAUUUAGUUA, the figure is 0.000836 ± 0.01; as for UCCUCCUACAGCUUGCAUAGUAUUUACAAA, 0.00255 ± 0.0035.
On to UCCUGGAUCAGGAUGCAUAGUAUUUACAAA, for which the “pre-steady-state target cleavage rate” value turned out to be 0.000593 ± 0.009.
Regarding UCCUCCUACAGCUUCCAUAGUAUUUUCAAA, the “pre-steady-state target cleavage rate” value stood at 0.000771 ± 0.0078.
On the same count and under the same terms, as for UCCUGCUACUCCUUGCAUAGUAUUUUCAAA, the figure is 0.00115 ± 0.0044; as for UCCUGGAACAGCUUCCAUAGUAUAUAGUUA, 0.0012 ± 0.0045; as for UCCUGGAUGUCCUUGCAUAGUAUAAUGUUA, 0.00229 ± 0.0036.
Same read-out and setting: as for UCCUGGAUGUGCUUGCUAUGUAUUUAGAAA, the figure is 0.000881 ± 0.008; as for UCCUGGAUCUCCUUGCAUAGUAUUUAGAAA, 0.00177 ± 0.0043; as for UCCUGGAUCAGCAACCAUAGUAUUUAGUUA, 0.00128 ± 0.0052.
UCCUGGUACAGGUUCCAUAGUAUUUAGUUA: the “pre-steady-state target cleavage rate” value is 0.000802 ± 0.0097.
Still for that read-out and setting: the value for UCCUGGAUCAGCUUCCAUAGUUUUUAGUUA was 0.000647 ± 0.0093; that for UCCUGCUACAGCUUCCAUAGUUUUUAGUUA was 0.00112 ± 0.0045.
Same read-out and setting: the value for UCCUGCUACAGCUUGCAUAGUAUUGUAGUUA was 0.00257 ± 0.0044; that for UCCUCCUACAGCUUCCAUAGUAUUAAGUUA was 0.000995 ± 0.0054; that for “UCCUGGAUGUCGUUGCAUAGAUAAAUCAAA [g11:g18:cont:t1A]” was 0.000576 ± 0.0076.
Same read-out and setting: the value for UCCUGCUACAGGAUGCAUAGUAUUUUCAAA was 0.000435 ± 0.015.
In the case of UCCUGGAUGUGCUAGCAUAGUAUUUAGAUA, the “pre-steady-state target cleavage rate” value worked out at 0.00316 ± 0.0038.
The same measure, in the same setting: as for UCCUGGAACAGCUUGCAUAGUUAUUUCAAA, the figure is 0.000939 ± 0.0048.
Consider UCCUGGAUCAGCUUGCAUUCAAUUUUCAAA, for which the “pre-steady-state target cleavage rate” value is 0.000621 ± 0.0079.
Still for that read-out and setting: the value for UCCUGGUACAGCUUGCAUAGUUAAUAGAAA was 0.0018 ± 0.0043; that for UCCUGGAUGUCGAUGCAUAUAUUUAGUUA was 0.00125 ± 0.0041; that for UCCUGGAACAGCUUGCAAUCUAUUUUCAAA was 0.000439 ± 0.012.
On the same count and under the same terms, as for UCCUGGAUGAGCUUGCAUAGUAAAUAGUAA, the figure is 0.00278 ± 0.003; as for UCCUGCUACAGCUUGCAUAGUUAUUAGUAA, 0.00267 ± 0.0029; as for UCCUGGAUGUCGAUGCAUAGUAUUUUGUAA, 0.000314 ± 0.013.
Still for that read-out and setting: the value for UCCUCCUACAGCAAGCAUAGUAUUUAGAAA was 0.000794 ± 0.0058.
As for UCCUGGAUGUCCUUGCAUUCAAUUUAGUAA, the “pre-steady-state target cleavage rate” value amounted to 0.000735 ± 0.01.
For UCCUGGAACAGCUUGCUAAGUAUUUACAAA, the “pre-steady-state target cleavage rate” value amounted to 0.0012 ± 0.006.
The same measure, in the same setting: the value for UCCUGGAUGUCCUUGCAGUAGUAUUUAGUUA was 0.00118 ± 0.0057; that for UCCUGGUACAGCUACGAUAGUAUUUACAAA was 0.00031 ± 0.012; that for UCCUGCAUGAGCUUGCAUAGUAUUUACAAA was 0.00279 ± 0.0036.
In the case of “UCCUGGAACAGCUUGCAUAGUUAAAUCAAA [g10:g23:cont:t1A]”, the “pre-steady-state target cleavage rate” value worked out at 0.00126 ± 0.005.
UCCUGGAUGUCCUUGCAUACUAUUUAGUAA: the “pre-steady-state target cleavage rate” value was 0.00115 ± 0.0044.

The subject of the next assay is EfPiwi piRISC loaded with L1MC piRNA (26 nt). Put plainly: pre-steady-state target cleavage rate (min^-1); guide: L1MC piRNA 5'p-UAACUAAAUACUAUGCAAGCUGUAGG; MIWI and MILI are mouse PIWI proteins and EfPiwi is from a freshwater sponge; tags in brackets are library labels; higher = faster piRNA-guided slicing of the target. To be noted: auxiliary factor: 500 nM Ephydatia muelleri Gtsf1. The gist of the method:
as §1
Take UCCUGGAUGUCCUUGCAUACUAAUUAGUUA: the “pre-steady-state target cleavage rate” value worked out at 0.00235 ± 0.0046.
Still for that read-out and setting: as for UCCUGGUACUCGUUGCAUAGUAUUUAGUUA, the figure is 0.000601 ± 0.0068.
On to “UCCUGGAUGUCCUUGCAUAGUUAAAUCAAA [g10:g19:cont:t1A]”, for which the “pre-steady-state target cleavage rate” value stood at 0.00113 ± 0.0063.
For the sequence UCCUGGAUGUCCUUGACAUAGUAUUUAGUUA, the “pre-steady-state target cleavage rate” value was 0.00194 ± 0.0034.
Still for that read-out and setting: as for UCCUGGAUCAGGAUGCAUAGUAUUUACAAA, the figure is 0.0029 ± 0.0042; as for UCCUCCUACAGCUUCCAUAGUAUUUUCAAA, 0.00228 ± 0.003.
Same read-out and setting: as for UCCUGCUACUCCUUGCAUAGUAUUUUCAAA, the figure is 0.00232 ± 0.0037; as for UCCUGGAACAGCUUCCAUAGUAUAUAGUUA, 0.000948 ± 0.0033; as for UCCUGGAUGUCCUUGCAUAGUAUAAUGUUA, 0.00142 ± 0.0054.
The same measure, in the same setting: as for UCCUGGAUGUGCUUGCUAUGUAUUUAGAAA, the figure is 0.000267 ± 0.014.
For UCCUGGAUCUCCUUGCAUAGUAUUUAGAAA, the “pre-steady-state target cleavage rate” value stood at 0.00628 ± 0.0051.
The same measure, in the same setting: as for UCCUGGAUCAGCAACCAUAGUAUUUAGUUA, the figure is 0.00251 ± 0.0037.
The same measure, in the same setting: as for UCCUGGUACAGGUUCCAUAGUAUUUAGUUA, the figure is 0.000681 ± 0.0058; as for UCCUGGAUCAGCUUCCAUAGUUUUUAGUUA, 0.000603 ± 0.0063; as for UCCUGCUACAGCUUCCAUAGUUUUUAGUUA, 0.00175 ± 0.0018.
The same measure, in the same setting: the value for UCCUGCUACAGCUUGCAUAGUAUUGUAGUUA was 0.00279 ± 0.0016; that for UCCUCCUACAGCUUCCAUAGUAUUAAGUUA was 0.00169 ± 0.0021.
Turning to “UCCUGGAUGUCGUUGCAUAGAUAAAUCAAA [g11:g18:cont:t1A]”, the “pre-steady-state target cleavage rate” value was less than 0.0001.
Turning to UCCUGGAUGUCGAACCUAUAGUAUUUAGUUA, the “pre-steady-state target cleavage rate” value amounted to 0.000361 ± 0.011.
On the same count and under the same terms, the value for UCCUGCUACAGGAUGCAUAGUAUUUUCAAA was 0.000766 ± 0.003; that for UCCUGGAUGUGCUAGCAUAGUAUUUAGAUA was 0.00239 ± 0.0025; that for UCCUGGAACAGCUUGCAUAGUUAUUUCAAA was 0.00079 ± 0.0044.
On the same count and under the same terms, as for UCCUGGAUCAGCUUGCAUUCAAUUUUCAAA, the figure is 0.000158 ± 0.024; as for UCCUGGUACAGCUUGCAUAGUUAAUAGAAA, 0.000875 ± 0.0047; as for UCCUGGAUGUCGAUGCAUAUAUUUAGUUA, 0.000832 ± 0.0093.
In the case of UCCUGGAACAGCUUGCAAUCUAUUUUCAAA, the “pre-steady-state target cleavage rate” value was determined as 0.00018 ± 0.026.
As to UCCUGGAUGAGCUUGCAUAGUAAAUAGUAA, the “pre-steady-state target cleavage rate” value was found to be 0.00272 ± 0.0031.
Same read-out and setting: as for UCCUGCUACAGCUUGCAUAGUUAUUAGUAA, the figure is 0.00306 ± 0.0017; as for UCCUGGAUGUCGAUGCAUAGUAUUUUGUAA, 0.000289 ± 0.0094; as for UCCUCCUACAGCAAGCAUAGUAUUUAGAAA, 0.00443 ± 0.0036.
For the sequence UCCUGGAUGUCCUUGCAUUCAAUUUAGUAA, the “pre-steady-state target cleavage rate” value worked out at 0.000161 ± 0.015.
Consider UCCUGGAACAGCUUGCUAAGUAUUUACAAA, for which the “pre-steady-state target cleavage rate” value was found to be 0.000518 ± 0.0058.
The same measure, in the same setting: as for UCCUGGAUGUCCUUGCAGUAGUAUUUAGUUA, the figure is 0.000341 ± 0.0099.
The same measure, in the same setting: the value for UCCUGGUACAGCUACGAUAGUAUUUACAAA was 0.000918 ± 0.0082.
Still for that read-out and setting: as for “UCCUGGAACAGCUUGCAUAGUUAAAUCAAA [g10:g23:cont:t1A]”, the figure is 0.000369 ± 0.011.
UCCUGGAUGUCCUUGCAUACUAUUUAGUAA: the “pre-steady-state target cleavage rate” value came to 0.00215 ± 0.0039.
